Experimental data reported in US4547488A, “Antibiotic M43D, pharmaceutical compositions and method of use” (priority 1984, dated 1985).
≈ marks a conversion by molar mass, not a printed value.

How the values were obtained:
Test in all cases: agar-dilution MIC
Format in all cases: cell-based
[1] = tested on: Staphylococcus aureus V41
Escherichia coli TEM = tested on: Escherichia coli TEM
Escherichia coli EC14 = tested on: Escherichia coli EC14
[2] = tested on: Staphylococcus epidermidis 222
[3] = tested on: Streptococcus pneumoniae Park 1
[4] = tested on: Staphylococcus aureus S13E
[5] = tested on: Staphylococcus epidermidis EPI1

`CN[C@H](CC(C)C)C(=O)N[C@H]1C(=O)N[C@@H](CC(N)=O)C(=O)N[C@H]2C(=O)N[C@H]3C(=O)N[C@H](C(=O)N[C@H](C(=O)O)c4cc(O)cc(O)c4-c4cc3ccc4O)[C@H](O)c3ccc(c(Cl)c3)Oc3cc2cc(c3O[C@@H]2O[C@H](CO)[C@@H](O)[C@H](O)[C@H]2O[C@H]2C[C@](C)(N)[C@H](O)[C@H](C)O2)Oc2ccc(cc2Cl)[C@H]1O` [Vancomycin] gave an MIC [1] of 0.5 µg/mL (≈ 0.345 µM), an MIC (Escherichia coli TEM) of 64 µg/mL (≈ 44.2 µM) and an MIC (Escherichia coli EC14) greater than 128 µg/mL. The MIC [2] was 1 µg/mL (≈ 0.69 µM), the MIC [3] was 0.125 µg/mL (≈ 0.0863 µM) and the MIC [4] was 1 µg/mL (≈ 0.69 µM). The MIC [5] was 2 µg/mL (≈ 1.38 µM).
